From patent US20210324028A1 come the findings set out here.

The chains behind the UniProt entries cited, without tags or fusion partners. Residues count along the entry.
UniProt Q13261, residues 31-205: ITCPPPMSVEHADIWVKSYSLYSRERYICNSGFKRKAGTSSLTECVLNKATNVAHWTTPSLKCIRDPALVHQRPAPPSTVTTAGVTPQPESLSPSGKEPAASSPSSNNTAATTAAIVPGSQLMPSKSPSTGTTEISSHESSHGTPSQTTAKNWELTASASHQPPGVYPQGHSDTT

The labels stand for the following.
B1: hIL-15 V49R/N4F (ligand)
chain: NWVFVISDLKKIEDLIQSMHIDATLYTESDVHPSCKVTAMKCFLLELQRISLESGDASIHDTVENLIILANNSLSSNGNVTESGCKECEELEEKNIKEFLQSFVHIVQMFINTGGGGSGHHHHHHHHGGGLNDIFEAQKIEWHE
B2: hIL-15 V49R/K11M (ligand)
chain: B1 chain with F4N, K11M
B3: hIL-15 V49R/K10V (ligand)
chain: B1 chain with F4N, K10V
B4: hIL-15 V49R/K11F (ligand)
chain: B1 chain with F4N, K11F
B5: hIL-15 V49R/N1F (ligand)
chain: B1 chain with N1F, F4N
B6: hIL-15 V49R/N1Y (ligand)
chain: B1 chain with N1Y, F4N
B7: hIL-15 V49R/K11G (ligand)
chain: B1 chain with F4N, K11G
B8: hIL-15 V49R/N4V (ligand)
chain: B1 chain with F4V
B9: hIL-15 V49R/K10F (ligand)
chain: B1 chain with F4N, K10F
B10: hIL-15 V49R/N1V (ligand)
chain: B1 chain with N1V, F4N
B11: hIL-15 V49R/L69G (ligand)
chain: B1 chain with F4N, L69G
B12: hIL-15 V49R/D30G (ligand)
chain: B1 chain with F4N, D30G
B13: hIL-15 V49R/H32F (ligand)
chain: B1 chain with F4N, H32F
B14: hIL-15 V49R/N4Y (ligand)
chain: B1 chain with F4Y
B15: hIL-15 V49R/K11P (ligand)
chain: B1 chain with F4N, K11P
B16: hIL-15 V49R/K10I (ligand)
chain: B1 chain with F4N, K10I
B17: hIL-15 V49R/K10P (ligand)
chain: B1 chain with F4N, K10P
B18: hIL-15 V49R/H32T (ligand)
chain: B1 chain with F4N, H32T
B19: hIL-15 V49R/H32W (ligand)
chain: B1 chain with F4N, H32W
B20: hIL-15 V49R/E64R (ligand)
chain: B1 chain with F4N, E64R
B21: hIL-15 V49R/N1L (ligand)
chain: B1 chain with N1L, F4N
B22: hIL-15 V49R/D30W (ligand)
chain: B1 chain with F4N, D30W
B23: hIL-15 V49R/N1M (ligand)
chain: B1 chain with N1M, F4N
B24: hIL-15 V49R/N1P (ligand)
chain: B1 chain with N1P, F4N
B25: hIL-15 V49R/E64V (ligand)
chain: B1 chain with F4N, E64V
B26: hIL-15 V49R/E64G (ligand)
chain: B1 chain with F4N, E64G
B27: hIL-15 V49R/H32Y (ligand)
chain: B1 chain with F4N, H32Y
B28: hIL-15 V49R/N4I (ligand)
chain: B1 chain with F4I
B29: hIL-15 V49R/S7P (ligand)
chain: B1 chain with F4N, S7P
B30: hIL-15 V49R/N4P (ligand)
chain: B1 chain with F4P
B31: hIL-15 V49R/L69N (ligand)
chain: B1 chain with F4N, L69N
B32: hIL-15 V49R/N4R (ligand)
chain: B1 chain with F4R
B33: hIL-15 V49R/I68E (ligand)
chain: B1 chain with F4N, I68E
B34: hIL-15 V49R/L69Q (ligand)
chain: B1 chain with F4N, L69Q
B35: hIL-15 V49R/D30P (ligand)
chain: B1 chain with F4N, D30P
B36: hIL-15 V49R/I68G (ligand)
chain: B1 chain with F4N, I68G
B37: hIL-15 V49R/L69H (ligand)
chain: B1 chain with F4N, L69H
B38: hIL-15 V49R/I68W (ligand)
chain: B1 chain with F4N, I68W

Residue numbers refer to the chain shown, from its start. In names and notes the source's numbering stands. No constants are given. Whether binding was seen depends on the method and setting. Some entries that bind do so weakly or less than the wild type.

The first assay deals with human IL-15Rα (human) (UniProt Q13261). The assay is described as follows: SPR.
Regarding B1, the binding entry is on record as “binds”.

B2: the binding result is given as “binds”.

For B3, the binding entry is given as “binds”.

Consider B4, for which the binding result is recorded as “binds”.

Turning to B5, the binding result was “binds”.

Regarding B6, the binding result is listed as “binds”.

In the case of B7, the binding result is listed as “binds”.

With B8, the binding entry is reported as “binds”.

Consider B9, for which the binding result is listed as “binds”.

As for B10, the binding entry is on record as “binds”.

For B11, the binding entry is “binds”.

With B12, the binding result is “binds”.

On to B13, for which the binding result is listed as “binds”.

On to B14, for which the binding result is “binds”.

As to B15, the binding entry is “binds”.

B16: the binding entry was “binds”.

B17: the binding result is on record as “binds”.

With B18, the binding result is given as “binds”.

With B19, the binding result was “binds”.

For B20, the binding result is “binds”.

On to B21, for which the binding entry is listed as “binds”.

In the case of B22, the binding entry is “binds”.

On to B23, for which the binding result is “binds”.

Regarding B24, the binding entry is “binds”.

As for B25, the binding result is on record as “binds”.

In the case of B26, the binding entry is given as “binds”.

As to B27, the binding result is given as “binds”.

On to B28, for which the binding result is reported as “binds”.

A further assay has as its target T1, human IL-2Rβ (human) (UniProt P14784).
T1 sequence (looked up): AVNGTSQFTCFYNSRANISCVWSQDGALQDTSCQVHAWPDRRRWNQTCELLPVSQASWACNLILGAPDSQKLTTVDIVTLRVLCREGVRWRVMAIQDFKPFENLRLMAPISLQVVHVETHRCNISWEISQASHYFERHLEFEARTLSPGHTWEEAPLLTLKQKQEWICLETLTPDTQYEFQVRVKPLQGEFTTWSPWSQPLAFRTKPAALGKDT
The experiment in a line: SPR.
Consider B29, for which the binding entry is on record as “binds”.

On to B3, for which the binding result is reported as “binds”.

For B5, the binding result is on record as “binds”.

Turning to B6, the binding entry is listed as “binds”.

Consider B7, for which the binding entry is given as “binds”.

In the case of B30, the binding result is “binds”.

Consider B31, for which the binding result is listed as “binds”.

For the molecule B32, the binding entry is “binds”.

For the molecule B33, the binding entry was “binds”.

Regarding B8, the binding result is recorded as “binds”.

For B9, the binding entry is listed as “binds”.

On to B10, for which the binding entry is recorded as “binds”.

For the molecule B34, the binding result is on record as “binds”.

Regarding B11, the binding entry is listed as “binds”.

For the molecule B20, the binding entry is “binds”.

As for B21, the binding result was “binds”.

B23: the binding result was “binds”.

In the case of B35, the binding result is “binds”.

In the case of B36, the binding result is recorded as “binds”.

On to B37, for which the binding entry is reported as “binds”.

In the case of B26, the binding entry is on record as “binds”.

Consider B38, for which the binding result is listed as “binds”.

In the case of B27, the binding result is “binds”.
